We go through one compound from PMC4942689, “Deciphering the function of the CNGB1b subunit in olfactory CNG channels” (Scientific Reports, 2016).

Chains of the proteins cited; added tags and fusions are not shown. Residues count along the entry.
UniProt A0A8I5ZN27, 1-858 isoform 2: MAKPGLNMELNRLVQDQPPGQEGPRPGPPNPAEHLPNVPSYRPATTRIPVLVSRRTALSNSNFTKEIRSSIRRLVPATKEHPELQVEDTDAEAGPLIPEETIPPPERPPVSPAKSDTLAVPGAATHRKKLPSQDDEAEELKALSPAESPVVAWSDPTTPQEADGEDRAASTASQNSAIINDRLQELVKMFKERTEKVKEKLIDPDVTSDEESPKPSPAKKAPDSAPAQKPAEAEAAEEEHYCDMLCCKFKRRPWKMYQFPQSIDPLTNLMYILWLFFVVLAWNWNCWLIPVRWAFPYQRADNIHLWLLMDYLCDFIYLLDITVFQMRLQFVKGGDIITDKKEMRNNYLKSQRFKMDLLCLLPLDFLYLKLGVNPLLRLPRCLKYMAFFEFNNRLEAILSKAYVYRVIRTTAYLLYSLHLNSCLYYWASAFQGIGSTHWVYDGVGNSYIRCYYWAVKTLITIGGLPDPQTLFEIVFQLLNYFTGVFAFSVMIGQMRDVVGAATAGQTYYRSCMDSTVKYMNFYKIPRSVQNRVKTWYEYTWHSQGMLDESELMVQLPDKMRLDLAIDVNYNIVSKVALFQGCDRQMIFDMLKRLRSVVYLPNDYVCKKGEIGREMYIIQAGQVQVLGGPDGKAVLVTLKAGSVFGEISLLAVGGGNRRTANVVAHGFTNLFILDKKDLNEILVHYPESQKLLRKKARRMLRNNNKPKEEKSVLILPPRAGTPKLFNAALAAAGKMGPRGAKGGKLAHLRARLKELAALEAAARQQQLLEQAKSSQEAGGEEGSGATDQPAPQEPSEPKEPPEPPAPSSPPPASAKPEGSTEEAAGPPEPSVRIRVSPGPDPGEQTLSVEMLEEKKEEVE
UniProt Q00195, whole entry R538E: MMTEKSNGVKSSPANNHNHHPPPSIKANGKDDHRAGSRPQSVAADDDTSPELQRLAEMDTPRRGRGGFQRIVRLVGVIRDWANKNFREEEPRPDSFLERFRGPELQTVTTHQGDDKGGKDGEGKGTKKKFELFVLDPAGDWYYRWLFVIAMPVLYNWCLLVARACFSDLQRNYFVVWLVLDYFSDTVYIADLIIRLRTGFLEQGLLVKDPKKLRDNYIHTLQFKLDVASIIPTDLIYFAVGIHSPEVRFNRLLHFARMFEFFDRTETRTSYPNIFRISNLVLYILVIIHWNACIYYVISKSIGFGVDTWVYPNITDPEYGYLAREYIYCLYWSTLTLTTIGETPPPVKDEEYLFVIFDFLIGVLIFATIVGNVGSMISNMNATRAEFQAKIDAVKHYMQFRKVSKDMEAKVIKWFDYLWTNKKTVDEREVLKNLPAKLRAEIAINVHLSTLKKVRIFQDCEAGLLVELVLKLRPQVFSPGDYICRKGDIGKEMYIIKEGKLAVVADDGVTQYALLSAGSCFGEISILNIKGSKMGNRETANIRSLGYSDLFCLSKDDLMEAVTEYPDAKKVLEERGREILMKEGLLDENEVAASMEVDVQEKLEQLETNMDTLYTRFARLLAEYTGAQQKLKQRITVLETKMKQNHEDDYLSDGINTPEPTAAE
UniProt Q64359, whole entry R430E: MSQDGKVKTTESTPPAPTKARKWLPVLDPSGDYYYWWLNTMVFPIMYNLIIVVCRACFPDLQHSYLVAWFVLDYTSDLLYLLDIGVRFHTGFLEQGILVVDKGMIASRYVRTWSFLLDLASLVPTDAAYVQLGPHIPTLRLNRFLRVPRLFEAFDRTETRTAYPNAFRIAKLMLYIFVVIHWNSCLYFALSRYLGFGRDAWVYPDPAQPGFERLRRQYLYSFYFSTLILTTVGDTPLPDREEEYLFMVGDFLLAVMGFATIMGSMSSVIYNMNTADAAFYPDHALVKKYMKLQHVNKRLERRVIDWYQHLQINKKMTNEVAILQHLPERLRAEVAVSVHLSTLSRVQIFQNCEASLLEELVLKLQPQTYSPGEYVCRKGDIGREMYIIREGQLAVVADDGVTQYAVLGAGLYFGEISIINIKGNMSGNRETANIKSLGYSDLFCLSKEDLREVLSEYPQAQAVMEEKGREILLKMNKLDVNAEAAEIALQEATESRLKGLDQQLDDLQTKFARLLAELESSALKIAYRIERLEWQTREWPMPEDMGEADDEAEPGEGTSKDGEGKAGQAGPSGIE

The source holds more than one record for some entries. This is not the full list of results. There may be further records. Values given together do not match, cause unknown; some may be repeats, others may stem from another dose, organism or construct than stated.

The assay has as its target CNGA2RE:A4RE:B1b (Rattus norvegicus, UniProt A0A8I5ZN27+Q00195+Q64359, R430E/R538E). Put plainly: Concentration-activation relationship and activation by fluorescent ligands, patch-clamp. To be noted: Hill coefficient of high affinity component; H was set to unity (fixed). The format is biochemical.

On to `Nc1nc2c(ncn2[C@@H]2O[C@@H]3COP(=O)(O)O[C@H]3[C@H]2O)c(=O)[nH]1` [cGMP], for which the Hh was 1.0 and 1 ^··.
